Among the data in patent US20240350586A1 are binding values, retold here.

Sequences of proteins named here, by UniProt entry; tags and fusion partners are left off.
UniProt Q9BXW4: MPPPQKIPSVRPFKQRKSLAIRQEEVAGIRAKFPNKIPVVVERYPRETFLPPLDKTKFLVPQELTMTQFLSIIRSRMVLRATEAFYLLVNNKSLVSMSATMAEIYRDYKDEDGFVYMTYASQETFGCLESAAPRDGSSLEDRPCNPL
UniProt O95166: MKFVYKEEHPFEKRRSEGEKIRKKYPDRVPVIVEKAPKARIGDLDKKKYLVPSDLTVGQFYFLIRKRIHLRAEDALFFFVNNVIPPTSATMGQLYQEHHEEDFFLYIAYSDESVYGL

These are yes or no findings as the source states them, for the method shown. In cells and extracts the contact can be indirect. Some entries that bind do so weakly or less than the wild type.

For assay [1], the target named is His-T7-LC3C (purified protein) (UniProt Q9BXW4). The assay is described as follows: synthetic peptide pull-down, immunoblot.
The target of assay [2] is His-T7-GABARAP (purified protein) (UniProt O95166). The assay is described as follows: synthetic peptide pull-down of T7-GABARAP protein.

Regarding ILGITESFQVKRQVLLSAAEAAEVILRVDN [CCT2 domain3 peptide 7], the binding entry in assay [1] and in assay [2] was “binds” each time.
